# Measurements taken from the supplement of paper PMC8728848.
# This is one part of the list.
# B1: ArathEULS3 TAP (Arabidopsis thaliana) (protein)
# chain: IDENLYFQGGSMDEKTTGWRGGHVVEGLAGELEQLRARLEHHPQGQREPGGGGSLEITSLYKKAGFMEHHHQHHRHHQRDDGEDDRQSFGVPPPHVDAPPQPHGLYQSQPHFDPYAPTPQAPAPYRSETQFEPHAPPPYRSEPYFETPAPPPSFGHVSHVGHQSPNESYPPEHHRYGGYQQPSNSLLESHGDHSGVTHVAHHSSNQPQSSSGVYHKPDENRLPDNLAGLAGRATVKVYSKAEPNYNLTIRDGKVILAPADPSDEAQHWYKDEKYSTKVKDADGHPCFALVNKATGEAMKHSVGATHPVHLIRYVPDKLDESVLWTESKDFGDGYRTIRMVNNTRLNVDAYHGDSKSGGVRDGTTIVLWDWNKGDNQLWKIFPF
# How the values were obtained:
# Test in all cases: glycan array binding signal (z-score within array); higher = stronger binding
# Conditions in all cases: glycan notation: IUPAC condensed, linker removed
# [1] = target: Fuc(a1-3)[Gal3S(b1-4)]GlcNAc6S
# Summary of the method: (§1)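 Columns mapping to the same glycan were averaged after glycan names were converted to IUPAC-condensed notation. The data come from 3228 arrays in the Consortium for Functional Glycomics database, limited to those with an available protein sequence. Binding is reported as a within-array Z-score averaged across arrays of one protein sequence and across linkers.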
# [2] = target: Fuc(a1-3)[GalNAc(b1-4)]GlcNAc
# Summary of the method: as §1
# [3] = target: Fuc(a1-3)[GalNAc(b1-4)]GlcNAc6S
# Summary of the method: as §1
# [4] = target: Fuc(a1-4)GlcNAc
# Summary of the method: as §1
# [5] = target: Fuc(b1-3)GlcNAc
# Summary of the method: as §1
# [6] = target: Gal(a1-2)Gal
# Summary of the method: as §1
# [7] = target: Gal(a1-3)Gal
# Summary of the method: as §1
# [8] = target: Gal(a1-3)Gal(b1-3)GlcNAc
# Summary of the method: as §1
# [9] = target: Gal(a1-3)Gal(b1-3)GlcNAc(b1-2)Man
# Summary of the method: as §1
# [10] = target: Gal(a1-3)Gal(b1-3)GlcNAc(b1-2)Man(a1-3)[Gal(a1-3)Gal(b1-3)GlcNAc(b1-2)Man(a1-6)]Man(b1-4)GlcNAc(b1-4)GlcNAc
# Summary of the method: as §1
# [11] = target: Gal(a1-3)Gal(b1-3)GlcNAc(b1-3)GalNAc
# Summary of the method: as §1
# [12] = target: Gal(a1-3)Gal(b1-3)GlcNAc(b1-6)GalNAc
# Summary of the method: as §1
# [13] = target: Gal(a1-3)Gal(b1-3)[Fuc(a1-4)]GlcNAc(b1-2)Man(a1-3)[Gal(a1-3)Gal(b1-3)[Fuc(a1-4)]GlcNAc(b1-2)Man(a1-6)]Man(b1-4)GlcNAc(b1-4)GlcNAc
# Summary of the method: as §1
# [14] = target: Gal(a1-3)Gal(b1-4)Glc
# Summary of the method: as §1
# [15] = target: Gal(a1-3)Gal(b1-4)GlcNAc
# Summary of the method: as §1
# [16] = target: Gal(a1-3)Gal(b1-4)GlcNAc(b1-2)Man
# Summary of the method: as §1
# [17] = target: Gal(a1-3)Gal(b1-4)GlcNAc(b1-2)Man(a1-3)[Gal(a1-3)Gal(b1-4)GlcNAc(b1-2)Man(a1-6)]Man(b1-4)GlcNAc(b1-4)GlcNAc
# Summary of the method: as §1
# [18] = target: Gal(a1-3)Gal(b1-4)GlcNAc(b1-3)GalNAc
# Summary of the method: as §1
# [19] = target: Gal(a1-3)Gal(b1-4)GlcNAc(b1-6)GalNAc
# Summary of the method: as §1
# [20] = target: Gal(a1-3)Gal(b1-4)[Fuc(a1-3)]GlcNAc
# Summary of the method: as §1
# [21] = target: Gal(a1-3)Gal(b1-4)[Fuc(a1-3)]GlcNAc(b1-2)Man(a1-3)[Gal(a1-3)Gal(b1-4)[Fuc(a1-3)]GlcNAc(b1-2)Man(a1-6)]Man(b1-4)GlcNAc(b1-4)GlcNAc
# Summary of the method: as §1
# [22] = target: Gal(a1-3)GalNAc
# Summary of the method: as §1
# [23] = target: Gal(a1-3)[Gal(a1-4)]Gal(b1-4)GlcNAc
# Summary of the method: as §1
# [24] = target: Gal(a1-4)Gal(b1-3)GlcNAc(b1-2)Man(a1-3)[Gal(a1-4)Gal(b1-3)GlcNAc(b1-2)Man(a1-6)]Man(b1-4)GlcNAc(b1-4)GlcNAc
# Summary of the method: as §1
# [25] = target: Gal(a1-4)Gal(b1-4)Glc
# Summary of the method: as §1
# [26] = target: Gal(a1-4)Gal(b1-4)GlcNAc
# Summary of the method: as §1
# [27] = target: Gal(a1-4)Gal(b1-4)GlcNAc(b1-2)Man(a1-3)[Gal(a1-4)Gal(b1-4)GlcNAc(b1-2)Man(a1-6)]Man(b1-4)GlcNAc(b1-4)GlcNAc
# Summary of the method: as §1
# [28] = target: Gal(a1-4)Gal(b1-4)GlcNAc(b1-3)Gal(b1-4)Glc
# Summary of the method: as §1
# [29] = target: Gal(a1-4)GlcNAc
# Summary of the method: as §1
# [30] = target: Gal(a1-6)Glc
# Summary of the method: as §1
# [31] = target: Gal(b1-2)Gal
# Summary of the method: as §1
# [32] = target: Gal(b1-3)Gal
# Summary of the method: as §1
# [33] = target: Gal(b1-3)Gal(b1-4)GlcNAc
# Summary of the method: as §1
# [34] = target: Gal(b1-3)GalNAc
# Summary of the method: as §1
# [35] = target: Gal(b1-3)GalNAc(a1-3)[Fuc(a1-2)]Gal(b1-4)Glc
# Summary of the method: as §1
# [36] = target: Gal(b1-3)GalNAc(a1-3)[Fuc(a1-2)]Gal(b1-4)GlcNAc
# Summary of the method: as §1
# [37] = target: Gal(b1-3)GalNAc(b1-3)Gal
# Summary of the method: as §1
binder,measurement,setting,value
B1,glycan array binding signal (z-score),[1],0.828
same,glycan array binding signal (z-score),[2],-0.132
same,glycan array binding signal (z-score),[3],-1.06
same,glycan array binding signal (z-score),[4],0.629
same,glycan array binding signal (z-score),[5],-0.367
same,glycan array binding signal (z-score),[6],0.286
same,glycan array binding signal (z-score),[7],3.3
same,glycan array binding signal (z-score),[8],0.759
same,glycan array binding signal (z-score),[9],-0.176
same,glycan array binding signal (z-score),[10],0.528
same,glycan array binding signal (z-score),[11],0.549
same,glycan array binding signal (z-score),[12],-1.02
same,glycan array binding signal (z-score),[13],-0.432
same,glycan array binding signal (z-score),[14],0.637
same,glycan array binding signal (z-score),[15],-0.865
same,glycan array binding signal (z-score),[16],-0.475
same,glycan array binding signal (z-score),[17],0.075
same,glycan array binding signal (z-score),[18],0.809
same,glycan array binding signal (z-score),[19],0.057
same,glycan array binding signal (z-score),[20],-0.089
same,glycan array binding signal (z-score),[21],1.14
same,glycan array binding signal (z-score),[22],-0.474
same,glycan array binding signal (z-score),[23],2.15
same,glycan array binding signal (z-score),[24],-1.05
same,glycan array binding signal (z-score),[25],-0.92
same,glycan array binding signal (z-score),[26],0.331
same,glycan array binding signal (z-score),[27],0.15
same,glycan array binding signal (z-score),[28],0.556
same,glycan array binding signal (z-score),[29],-0.544
same,glycan array binding signal (z-score),[30],-1.74
same,glycan array binding signal (z-score),[31],0.438
same,glycan array binding signal (z-score),[32],-0.16
same,glycan array binding signal (z-score),[33],-0.374
same,glycan array binding signal (z-score),[34],-0.703
same,glycan array binding signal (z-score),[35],1.46
same,glycan array binding signal (z-score),[36],-0.662
same,glycan array binding signal (z-score),[37],-1.19

# Taken from the results shown (two entries):
binder,measurement,setting,value
B1,glycan array binding signal (z-score),[28],0.556
same,glycan array binding signal (z-score),[29],-0.544
